Measurements reported in PubChem BioAssay AID1259308 (NCATS, 2017)
The whole screen tested about 59,000 reagents; below is a part drawn at random. Of all reagents, about 1,510 (2.6%) got an active call. 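Calls use total luciferase alone and ignore viability, so some active siRNAs may act by altering cell number.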 Reagents against one gene are numbered here. Further read-outs or replicates are left out here.

Test: 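Knock-downs that increase output of a recombinant reporter protein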 (primary screen)
Cell system: human HEK293 embryonic kidney cells stably expressing firefly luciferase (HEK-CMV-Luc2-Hygro)
Knock-down reagent: single siRNA against human genes, 0.8 pmol siRNA per well
Duration: 72 h
Measurement: 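Luciferase light (ONE-Glo) measured on one replicate plate set and viability (CellTiter-Glo) on the other, scaled to a negative control siRNA, with robust z-scores and luciferase per cell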
Scale: total luciferase, z-score and total luciferase, % of control: higher = more reporter protein produced
Call rule: 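Active when the median/MAD z-score for overall luciferase is greater than 3; a gene was taken forward for validation with new siRNAs if at least two of its three siRNAs passed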
Meaning of the calls: active = raised luciferase; inactive = no rise

gene knocked down	reagent	total luciferase, z-score	total luciferase, % of control	outcome
CLPSL2	1	-0.0365	81.2	inactive
CLPSL2	2	-1.03	61.4	inactive
CLPSL2	3	-0.725	67.5	inactive
ITPR3	1	-0.499	72	inactive
ITPR3	2	0.563	93.1	inactive
ITPR3	3	0.472	91.3	inactive
STBD1	1	0.348	88.8	inactive
STBD1	2	-0.145	79	inactive
STBD1	3	0.683	95.5	inactive
PTPN2	1	-0.268	76.6	inactive
PTPN2	2	0.951	101	inactive
PTPN2	3	0.409	90	inactive

The list goes on; the last 2 above are carried over.
gene knocked down	reagent	total luciferase, z-score	total luciferase, % of control	outcome
PTPN2	2	0.951	101	inactive
PTPN2	3	0.409	90	inactive
HMGA2	1	1.45	111	inactive
HMGA2	2	1.71	116	inactive
HMGA2	3	-0.774	66.5	inactive
TRIM55	1	-1.15	59.1	inactive
TRIM55	2	-0.484	72.3	inactive
TRIM55	3	3.34	148	active
NRSN2	1	-0.691	68.1	inactive
NRSN2	2	2.28	127	inactive
NRSN2	3	1.45	111	inactive
TMSB15A	1	-0.514	71.7	inactive
TMSB15A	2	-0.499	72	inactive
TMSB15A	3	-0.208	77.7	inactive
